Laboratory results reported in the supplement of paper PMC7666118.
The other results are listed elsewhere or left out.

The chains behind the UniProt entries cited, without tags or fusion partners. Where a name states a change or a piece, a line headed by the entry shows the natural chain unless it says otherwise.
UniProt O15440: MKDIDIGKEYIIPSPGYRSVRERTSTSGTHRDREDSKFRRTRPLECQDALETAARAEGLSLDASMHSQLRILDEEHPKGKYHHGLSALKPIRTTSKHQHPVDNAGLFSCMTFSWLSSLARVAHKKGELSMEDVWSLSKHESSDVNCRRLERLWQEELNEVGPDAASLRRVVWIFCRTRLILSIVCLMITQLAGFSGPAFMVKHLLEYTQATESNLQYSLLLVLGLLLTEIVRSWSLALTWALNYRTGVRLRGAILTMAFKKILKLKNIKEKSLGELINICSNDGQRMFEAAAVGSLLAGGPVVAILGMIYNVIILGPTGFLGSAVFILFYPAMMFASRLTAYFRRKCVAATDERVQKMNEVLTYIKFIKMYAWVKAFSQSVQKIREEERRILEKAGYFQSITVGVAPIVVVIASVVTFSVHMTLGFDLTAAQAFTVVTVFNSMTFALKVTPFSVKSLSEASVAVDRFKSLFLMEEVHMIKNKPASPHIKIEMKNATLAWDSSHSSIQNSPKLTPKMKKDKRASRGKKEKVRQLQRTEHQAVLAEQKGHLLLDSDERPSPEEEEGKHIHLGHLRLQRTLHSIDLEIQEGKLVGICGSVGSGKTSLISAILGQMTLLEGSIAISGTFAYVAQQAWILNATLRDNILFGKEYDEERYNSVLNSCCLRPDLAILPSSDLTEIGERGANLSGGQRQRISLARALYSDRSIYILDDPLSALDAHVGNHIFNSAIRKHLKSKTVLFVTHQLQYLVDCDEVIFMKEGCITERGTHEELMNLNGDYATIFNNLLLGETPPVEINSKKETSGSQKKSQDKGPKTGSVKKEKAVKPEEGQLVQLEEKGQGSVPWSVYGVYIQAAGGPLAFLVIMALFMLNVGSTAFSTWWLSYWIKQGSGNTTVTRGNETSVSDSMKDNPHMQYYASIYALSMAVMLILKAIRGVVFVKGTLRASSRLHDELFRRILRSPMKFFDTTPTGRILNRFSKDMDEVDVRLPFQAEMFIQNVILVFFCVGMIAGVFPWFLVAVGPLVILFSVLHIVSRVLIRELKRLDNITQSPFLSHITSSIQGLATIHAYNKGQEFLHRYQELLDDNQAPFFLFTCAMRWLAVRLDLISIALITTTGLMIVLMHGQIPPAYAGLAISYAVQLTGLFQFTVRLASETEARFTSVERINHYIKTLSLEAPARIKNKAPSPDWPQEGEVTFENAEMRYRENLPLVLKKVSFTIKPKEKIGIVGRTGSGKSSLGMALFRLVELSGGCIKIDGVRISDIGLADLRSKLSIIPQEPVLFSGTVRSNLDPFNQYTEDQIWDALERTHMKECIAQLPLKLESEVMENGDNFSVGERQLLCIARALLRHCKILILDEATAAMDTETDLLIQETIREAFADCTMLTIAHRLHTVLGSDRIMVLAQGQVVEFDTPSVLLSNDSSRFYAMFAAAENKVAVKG
UniProt P21399: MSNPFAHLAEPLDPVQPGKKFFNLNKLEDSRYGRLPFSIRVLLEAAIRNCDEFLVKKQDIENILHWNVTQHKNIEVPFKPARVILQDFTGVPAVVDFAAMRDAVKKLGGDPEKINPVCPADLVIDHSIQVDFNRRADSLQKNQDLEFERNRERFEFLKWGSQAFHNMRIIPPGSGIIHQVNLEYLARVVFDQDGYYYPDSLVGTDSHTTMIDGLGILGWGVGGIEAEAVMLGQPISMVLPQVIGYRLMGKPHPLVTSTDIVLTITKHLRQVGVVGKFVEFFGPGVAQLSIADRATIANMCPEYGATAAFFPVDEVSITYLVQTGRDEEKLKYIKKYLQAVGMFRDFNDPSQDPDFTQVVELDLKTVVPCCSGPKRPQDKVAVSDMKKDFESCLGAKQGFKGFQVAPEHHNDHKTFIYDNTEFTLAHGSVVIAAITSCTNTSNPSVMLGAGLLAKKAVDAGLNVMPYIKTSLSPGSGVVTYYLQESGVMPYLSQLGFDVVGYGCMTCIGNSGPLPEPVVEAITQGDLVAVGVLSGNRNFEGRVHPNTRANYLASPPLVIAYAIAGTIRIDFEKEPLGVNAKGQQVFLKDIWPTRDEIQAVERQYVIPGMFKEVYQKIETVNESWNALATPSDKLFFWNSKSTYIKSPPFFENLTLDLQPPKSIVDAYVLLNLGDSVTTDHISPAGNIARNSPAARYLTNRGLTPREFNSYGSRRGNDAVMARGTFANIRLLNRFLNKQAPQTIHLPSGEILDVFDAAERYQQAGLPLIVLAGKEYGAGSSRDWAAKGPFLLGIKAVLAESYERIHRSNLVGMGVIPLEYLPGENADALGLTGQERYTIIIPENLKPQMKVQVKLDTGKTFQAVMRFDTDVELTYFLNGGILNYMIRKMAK
UniProt P07311: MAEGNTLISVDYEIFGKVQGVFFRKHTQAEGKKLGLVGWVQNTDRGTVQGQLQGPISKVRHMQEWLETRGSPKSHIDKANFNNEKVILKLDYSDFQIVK
UniProt Q96CM8: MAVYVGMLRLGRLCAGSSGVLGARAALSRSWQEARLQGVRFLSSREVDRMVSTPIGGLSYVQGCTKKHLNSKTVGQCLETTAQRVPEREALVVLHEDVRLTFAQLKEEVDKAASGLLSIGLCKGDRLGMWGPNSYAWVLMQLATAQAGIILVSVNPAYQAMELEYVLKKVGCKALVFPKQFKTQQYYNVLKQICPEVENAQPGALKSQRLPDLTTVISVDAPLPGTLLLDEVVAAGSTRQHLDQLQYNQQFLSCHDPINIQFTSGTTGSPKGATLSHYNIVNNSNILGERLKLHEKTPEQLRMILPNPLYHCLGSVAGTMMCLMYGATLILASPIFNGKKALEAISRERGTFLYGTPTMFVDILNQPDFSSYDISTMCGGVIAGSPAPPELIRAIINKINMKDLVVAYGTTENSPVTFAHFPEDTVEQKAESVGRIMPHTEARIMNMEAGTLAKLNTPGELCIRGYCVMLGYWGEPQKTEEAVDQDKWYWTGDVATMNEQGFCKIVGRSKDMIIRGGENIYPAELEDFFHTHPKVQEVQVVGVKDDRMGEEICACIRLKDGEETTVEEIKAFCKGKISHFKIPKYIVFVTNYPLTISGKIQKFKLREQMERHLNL
UniProt Q9UEY8: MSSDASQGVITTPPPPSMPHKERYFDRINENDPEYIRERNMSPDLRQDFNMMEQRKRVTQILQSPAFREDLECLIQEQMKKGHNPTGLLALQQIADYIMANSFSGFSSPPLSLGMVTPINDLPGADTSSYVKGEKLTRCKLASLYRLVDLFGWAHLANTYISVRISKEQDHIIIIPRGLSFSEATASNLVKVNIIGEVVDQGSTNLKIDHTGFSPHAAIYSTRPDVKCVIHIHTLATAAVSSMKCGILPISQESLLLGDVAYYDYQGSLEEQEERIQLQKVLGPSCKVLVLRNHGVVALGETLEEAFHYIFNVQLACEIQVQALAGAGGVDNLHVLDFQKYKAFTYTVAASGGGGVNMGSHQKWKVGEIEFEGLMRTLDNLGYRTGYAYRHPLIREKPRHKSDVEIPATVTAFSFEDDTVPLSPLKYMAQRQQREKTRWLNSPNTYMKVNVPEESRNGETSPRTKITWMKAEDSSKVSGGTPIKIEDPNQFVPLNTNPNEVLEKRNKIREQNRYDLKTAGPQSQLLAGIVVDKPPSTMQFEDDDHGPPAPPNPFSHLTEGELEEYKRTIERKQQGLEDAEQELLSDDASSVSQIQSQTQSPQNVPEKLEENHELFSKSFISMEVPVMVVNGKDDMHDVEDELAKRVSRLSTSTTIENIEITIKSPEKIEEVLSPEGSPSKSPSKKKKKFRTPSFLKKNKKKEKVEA
UniProt Q13685: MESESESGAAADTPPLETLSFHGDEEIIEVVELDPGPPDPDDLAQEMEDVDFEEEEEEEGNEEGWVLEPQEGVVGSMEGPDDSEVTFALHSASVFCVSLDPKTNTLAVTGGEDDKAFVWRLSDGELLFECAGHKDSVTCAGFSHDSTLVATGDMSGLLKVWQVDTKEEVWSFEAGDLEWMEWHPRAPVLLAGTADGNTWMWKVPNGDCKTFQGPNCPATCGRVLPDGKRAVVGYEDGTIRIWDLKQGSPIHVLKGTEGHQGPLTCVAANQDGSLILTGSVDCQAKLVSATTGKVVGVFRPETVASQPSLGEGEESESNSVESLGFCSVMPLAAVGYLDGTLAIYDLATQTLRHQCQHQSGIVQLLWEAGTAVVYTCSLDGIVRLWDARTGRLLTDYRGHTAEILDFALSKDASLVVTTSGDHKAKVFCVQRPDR
UniProt P01023, whole entry: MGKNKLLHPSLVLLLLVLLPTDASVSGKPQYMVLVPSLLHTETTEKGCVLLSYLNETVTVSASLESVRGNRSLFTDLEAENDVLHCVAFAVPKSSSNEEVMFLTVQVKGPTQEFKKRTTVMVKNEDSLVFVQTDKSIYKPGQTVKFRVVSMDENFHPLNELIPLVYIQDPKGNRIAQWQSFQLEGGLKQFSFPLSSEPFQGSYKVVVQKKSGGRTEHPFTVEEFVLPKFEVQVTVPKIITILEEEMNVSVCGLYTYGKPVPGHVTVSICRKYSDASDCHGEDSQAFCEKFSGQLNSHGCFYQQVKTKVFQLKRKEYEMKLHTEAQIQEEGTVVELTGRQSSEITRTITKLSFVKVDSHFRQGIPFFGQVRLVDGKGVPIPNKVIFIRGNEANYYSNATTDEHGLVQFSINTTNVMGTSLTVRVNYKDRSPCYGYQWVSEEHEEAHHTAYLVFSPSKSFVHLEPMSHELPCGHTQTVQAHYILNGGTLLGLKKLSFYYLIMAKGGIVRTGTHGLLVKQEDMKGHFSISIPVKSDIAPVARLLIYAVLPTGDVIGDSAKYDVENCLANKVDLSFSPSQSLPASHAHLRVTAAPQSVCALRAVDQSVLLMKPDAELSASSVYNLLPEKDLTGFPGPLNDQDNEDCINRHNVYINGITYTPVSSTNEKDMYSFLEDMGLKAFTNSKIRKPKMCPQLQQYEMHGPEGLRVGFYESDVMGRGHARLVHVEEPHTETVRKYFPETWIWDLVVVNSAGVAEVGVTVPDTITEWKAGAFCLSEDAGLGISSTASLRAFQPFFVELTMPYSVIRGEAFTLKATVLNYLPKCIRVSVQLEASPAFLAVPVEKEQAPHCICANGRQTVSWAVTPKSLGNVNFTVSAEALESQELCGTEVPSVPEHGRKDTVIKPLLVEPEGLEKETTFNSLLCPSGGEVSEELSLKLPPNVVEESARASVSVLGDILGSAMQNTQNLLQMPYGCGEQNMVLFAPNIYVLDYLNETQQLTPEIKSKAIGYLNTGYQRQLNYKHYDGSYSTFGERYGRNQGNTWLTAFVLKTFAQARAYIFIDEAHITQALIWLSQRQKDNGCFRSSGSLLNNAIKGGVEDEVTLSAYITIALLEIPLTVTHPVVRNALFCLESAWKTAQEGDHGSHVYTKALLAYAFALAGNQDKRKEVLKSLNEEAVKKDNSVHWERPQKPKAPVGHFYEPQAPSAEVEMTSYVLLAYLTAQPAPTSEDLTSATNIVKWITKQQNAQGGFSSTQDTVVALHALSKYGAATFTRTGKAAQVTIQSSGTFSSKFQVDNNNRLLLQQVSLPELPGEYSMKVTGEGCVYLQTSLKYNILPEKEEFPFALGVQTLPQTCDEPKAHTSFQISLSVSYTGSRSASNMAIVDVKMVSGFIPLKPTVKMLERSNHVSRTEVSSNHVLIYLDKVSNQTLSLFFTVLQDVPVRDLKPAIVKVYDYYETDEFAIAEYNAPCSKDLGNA
UniProt Q9NYB9: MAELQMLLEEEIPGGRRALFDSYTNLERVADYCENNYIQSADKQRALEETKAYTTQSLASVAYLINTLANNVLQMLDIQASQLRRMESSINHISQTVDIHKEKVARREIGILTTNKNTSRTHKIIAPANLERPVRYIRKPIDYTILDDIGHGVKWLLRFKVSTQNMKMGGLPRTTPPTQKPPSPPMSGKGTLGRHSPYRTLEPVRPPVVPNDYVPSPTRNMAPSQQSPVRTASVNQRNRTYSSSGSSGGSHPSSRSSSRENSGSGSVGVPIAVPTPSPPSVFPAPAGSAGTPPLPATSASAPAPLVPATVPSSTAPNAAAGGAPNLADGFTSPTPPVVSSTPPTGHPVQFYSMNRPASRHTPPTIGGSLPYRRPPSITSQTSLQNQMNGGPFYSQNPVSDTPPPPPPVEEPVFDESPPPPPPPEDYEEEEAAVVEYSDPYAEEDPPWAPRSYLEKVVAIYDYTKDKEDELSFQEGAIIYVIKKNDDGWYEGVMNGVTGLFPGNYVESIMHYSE
UniProt P15309: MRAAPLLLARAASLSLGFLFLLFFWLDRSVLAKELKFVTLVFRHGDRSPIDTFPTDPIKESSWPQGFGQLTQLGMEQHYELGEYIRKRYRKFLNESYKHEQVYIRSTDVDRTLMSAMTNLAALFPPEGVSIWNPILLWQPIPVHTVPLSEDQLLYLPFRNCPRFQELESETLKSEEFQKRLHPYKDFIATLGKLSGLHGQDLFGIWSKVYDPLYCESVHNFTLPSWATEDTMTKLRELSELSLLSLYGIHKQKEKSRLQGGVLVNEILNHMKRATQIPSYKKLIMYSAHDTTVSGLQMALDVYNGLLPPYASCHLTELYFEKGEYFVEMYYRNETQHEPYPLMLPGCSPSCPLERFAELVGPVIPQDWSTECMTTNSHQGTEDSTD

compound: COc1ccc(Cn2ccc3cc(C)c(C(=O)NO)cc32)cc1; assay: dose-dependent thermal stabilisation call (2D-TPP, DLPTP, 10% FDR) (binary (1 = stabilised)); higher = stabilised by the compound; conditions: system: HL-60 intact cells; concentration range 0.04-10 µM
Description: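 2D thermal proteome profiling in intact HL-60 cells treated with BRD-3811 (0, 0.04, 0.29, 2, 10 uM) for 90 min at 37 C, then heated 3 min at one of 12 temperatures (42-63.9 C). Soluble protein was quantified by TMT10 MS. The value is the DLPTP call of the paper: dose-dependent thermal stabilisation over all temperatures at 10% FDR (F-test of a dose-response against a flat model); one experiment, one call per tested protein.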

Target | dose-dependent thermal stabilisation call
ACACA (UniProt Q13085) | inactive: 0
AAAS (UniProt Q9NRG9) | inactive: 0
ABCD1 (UniProt P33897) | inactive: 0
ADFP (UniProt Q99541) | inactive: 0
ABL1 (UniProt P00519) | inactive: 0
ACSM3 (UniProt Q53FZ2) | inactive: 0
ACTL8 (UniProt Q9H568) | inactive: 0
ABCC5 (UniProt O15440) | inactive: 0
ACYP2 (UniProt P14621) | inactive: 0
ACO1 (UniProt P21399) | inactive: 0
ACBD3 (UniProt Q9H3P7) | inactive: 0
ABCF2 (UniProt Q9UG63) | inactive: 0
ACOT8 (UniProt O14734) | inactive: 0
ACTL6A (UniProt O96019) | inactive: 0
ABI1 (UniProt Q8IZP0) | inactive: 0
ACYP1 (UniProt P07311) | inactive: 0
ADNP (UniProt Q9H2P0) | inactive: 0
42 KDA PROTEIN. | inactive: 0
ABHD11 (UniProt Q8NFV4) | inactive: 0
ACAD9 (UniProt Q9H845) | inactive: 0

For reference, part of the list above:
Target | dose-dependent thermal stabilisation call
ADFP (UniProt Q99541) | inactive: 0
ABL1 (UniProt P00519) | inactive: 0

The list continues.

Target | dose-dependent thermal stabilisation call
ACSF2 (UniProt Q96CM8) | inactive: 0
ADD3 (UniProt Q9UEY8) | inactive: 0
AASDH (UniProt Q4L235) | inactive: 0
ABCB8 (UniProt Q9NUT2) | inactive: 0
ADPGK (UniProt Q9BRR6) | inactive: 0
AAMP (UniProt Q13685) | inactive: 0
ADAM22 (UniProt Q9P0K1) | inactive: 0
AADACL1 (UniProt Q6PIU2) | inactive: 0
ACTR3 (UniProt P61158) | inactive: 0
ADA (UniProt P00813) | inactive: 0
A2M (UniProt P01023) | inactive: 0
ACTR6 (UniProt Q9GZN1) | inactive: 0
ADD1 (UniProt P35611) | inactive: 0
ABI2 (UniProt Q9NYB9) | inactive: 0
ACN9 (UniProt Q9NRP4) | inactive: 0
ACIN1 (UniProt Q9UKV3) | inactive: 0
ABCC1 (UniProt P33527) | inactive: 0
ABCE1 (UniProt P61221) | inactive: 0
ACPP (UniProt P15309) | inactive: 0
ACTR1B (UniProt P42025) | inactive: 0
